This is an account of results in PMC8539346 (Molecules, 2021).

Strings that start with PEPTIDE1 are HELM notation: dots part the residues, brackets hold end groups and non-standard residues.

This data set in a line: general procedure: Fmoc solid-phase peptide synthesis; 2-Chlorotrityl chloride resin; DIPCDI/HOBt; TBTU/DIPEA (solution couplings). To be noted: late stage modification step.

“PEPTIDE1{R.G.D.[dF].K}|PEPTIDE2{R.G.D.[D-Phe4I].K}|PEPTIDE3{E}$PEPTIDE1,PEPTIDE1,1:R1-5:R2|PEPTIDE2,PEPTIDE2,1:R1-5:R2|PEPTIDE3,PEPTIDE1,1:R3-5:R3|PEPTIDE3,PEPTIDE2,1:R2-5:R3$$$V2.0” had a step yield of 71%.
